This experiment deals with TRX-x (BiFC fusion) (Arabidopsis thaliana). As to the kind of experiment: split reporter; BiFC: YFP-N and YFP-C fusions (pSPYNE-35S, pSPYCE-35S) coexpressed in N. benthamiana leaves by Agrobacterium GV3101 infiltration; confocal imaging of YFP and chlorophyll autofluorescence 3 days after infiltration.

Results are given in words; binding and its absence hold for the method and conditions named. Binding seen in cells or lysates may run through a third protein. Sequences can lack the tags named with a protein.

B1: NdhS (BiFC fusion) (protein, UniProt Q9T0A4 49-250)
chain: AMGKFNLWEVMGGRGLCNGEKGIEKELQRNIEDEQETSKAENNETERESDDSNLSFKVPEDGFEKEMMGLTGGFPGGEKGLKTFIEKNPPPPPPPPPAKQGSDASAVATDKKPKAPKLPLLMPGMIAIVKNQNSPYHMYCGIVQRITDGKAGVLFEGGNWDRLITFRLEELERREKGPPGKNPKSCILEPLIEQMQKEEAAP
With B1, the binding entry is listed as “no binding”.

B2: PGR5 (BiFC fusion) (protein, UniProt Q9SL05 61-133)
chain: KNVNEGKGLFAPLVVVTRNLVGKKRFNQLRGKAIALHSQVITEFCKSIGADAKQRQGLIRLAKKNGERLGFLA
In the case of B2, the binding result was “no binding”.

The record behind these values is publication PMC6508795.
